Out of some 390,000 compounds screened, about 910 (0.23%) were called active. The inconclusive results got no clear call from the source; some entries with a clear call stand among them for comparison. Calls follow the shape of the dose curve; as a rule, active = well fitted inhibition curve with a large enough effect; inconclusive = small, poorly fitted or top-dose-only effect; inactive = no such curve, though single readings can be large or run the other way. Potencies of inconclusive entries are doubtful fits and often do not repeat.
target: Ubiquitin carboxyl-terminal hydrolase 1 (Homo sapiens) (UniProt O94782); experiment: Inhibitors of USP1/UAF1: Primary Screen; conditions: recombinant USP1/UAF1, Ub-Rhodamine cleavage fluorescence; series mostly up to 57.1 µM; also: nearly all actives have a fitted effect of over 60% in size
How it was run: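 In this screen, compounds sit with the deubiquitinase complex (1nM) for 15 min at room temperature before Ub-Rho is added at 150nM final. Fluorescence rise is then followed for 6 reads every 60 seconds.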
Potency is read from the fitted curve at half-maximal effect.

Protein sequences, listed by entry. Tags and fused reporters are not part of them. Lines headed by an entry give the natural chain unless they say otherwise; changes in a name come on top.
UniProt O94782: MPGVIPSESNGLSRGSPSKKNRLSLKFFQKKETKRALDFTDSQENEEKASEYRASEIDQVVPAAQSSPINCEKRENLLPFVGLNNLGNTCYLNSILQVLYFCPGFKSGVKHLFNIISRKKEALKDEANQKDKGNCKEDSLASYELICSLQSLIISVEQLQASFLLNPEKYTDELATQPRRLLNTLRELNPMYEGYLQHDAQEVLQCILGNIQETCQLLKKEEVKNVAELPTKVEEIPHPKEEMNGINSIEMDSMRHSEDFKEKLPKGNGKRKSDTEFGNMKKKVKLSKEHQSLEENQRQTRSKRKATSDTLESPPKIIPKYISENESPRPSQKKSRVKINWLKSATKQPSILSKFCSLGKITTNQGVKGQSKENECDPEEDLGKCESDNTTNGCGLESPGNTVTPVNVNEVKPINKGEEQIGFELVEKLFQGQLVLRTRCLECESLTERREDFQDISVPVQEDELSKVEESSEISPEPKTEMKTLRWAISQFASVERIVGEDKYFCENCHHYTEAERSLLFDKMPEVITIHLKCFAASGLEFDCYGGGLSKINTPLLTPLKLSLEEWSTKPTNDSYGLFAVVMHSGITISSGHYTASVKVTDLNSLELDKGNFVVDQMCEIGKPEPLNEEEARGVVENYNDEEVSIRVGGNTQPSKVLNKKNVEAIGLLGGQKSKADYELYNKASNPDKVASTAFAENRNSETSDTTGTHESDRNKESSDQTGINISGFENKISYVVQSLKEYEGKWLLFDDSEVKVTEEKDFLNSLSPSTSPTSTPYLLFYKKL

Row | SMILES | Potency
1 | CCOC(=O)N1CCc2c(sc(NCc3ccc(N(C)C)cc3)c2C(=O)Nc2ccc(OC)cc2)C1 | active: 28.2 µM
2 | CCCc1cc(CN2CCOCC2)c(O)c(CN2CCOCC2)c1O | inactive
3 | Cc1ccc(-n2nc(C)c3c(C(=O)NCc4ccc(F)cc4)cc(C)nc32)cc1 | inconclusive: 56.2 µM [inhibitor, single point]
4 | CCCOc1ccc(C(=O)N2CCN(c3ccc(NC(=O)CC)cc3Cl)CC2)cc1 | inactive
5 | O=C(C[C@H]1C/C=C\C[C@@H](NC(=O)OCC2c3ccccc3-c3ccccc32)C(=O)O[C@@H](c2ccccc2)CNC1=O)N[C@H](CO)Cc1ccccc1 | inconclusive: 7.94 µM [inhibitor, partial curve]
6 | CCOc1ccc(NC(=O)c2c(NCc3sccc3C)sc3c2CCCCC3)cc1 | inconclusive: 0.316 µM [inhibitor, full curve, poor fit]
7 | CN(CC(=O)Nc1ccccc1Cl)C(=O)COC(=O)c1ccc([N+](=O)[O-])s1 | inconclusive: 35.5 µM [inhibitor, single point]
8 | Cn1c(N)c(C(=O)COC(=O)c2cc(-c3ccco3)nc3ccccc23)c(=O)n(C)c1=O | inconclusive: 44.7 µM [inhibitor, partial curve, poor fit]
9 | COc1ccc(-c2ccc(NCCN3CCOCC3)nn2)cc1OC | inconclusive: 5.01 µM [inhibitor, full curve, poor fit]
10 | CSc1ncc(Cl)c(C(=O)Nc2ccc(S(=O)(=O)N3CCCC(C)C3)cc2)n1 (centres undefined) | inconclusive: 8.91 µM [inhibitor, partial curve, poor fit]
11 | O=C(/C=C/C(=O)N1CCc2ccccc2C1)N1CCc2ccccc2C1 | inconclusive: 50.1 µM [inhibitor, partial curve, poor fit]
12 | CCCCOc1ccc(C2C3CN(C(=O)OCC)CC=C3C(C#N)=C(N)C2(C#N)C#N)cc1OC (centres undefined) | inconclusive: 28.2 µM [inhibitor, partial curve]
13 | C[C@H](CO)N1C[C@H](C)[C@@H](CN(C)CC2CCCCC2)Oc2ccc(NC(=O)CCN3CCOCC3)cc2C1=O | inconclusive: 8.91 µM [inhibitor, full curve, poor fit]
14 | COc1ccc2[nH]c(=O)c(CNc3ccccc3OC)cc2c1 | inactive
15 | Cc1cc(C)c2c(=O)cc(C(=O)Nc3ccc(S(=O)(=O)N(C)Cc4ccccc4)cc3)oc2c1 | inconclusive: 0.282 µM [inhibitor, full curve]
16 | CCN(CC)c1ccc(CNC(=O)C/C(C)=N/NC(=O)COc2ccc(C)cc2Br)cc1 | inconclusive: 7.08 µM [inhibitor, partial curve, poor fit]
17 | O=C(O)CC1C(=O)OCN1C(=O)OCc1ccccc1 (centres undefined) | inconclusive: 0.891 µM [inhibitor, full curve, poor fit]
18 | CN1CCN(S(=O)(=O)c2ccc(Oc3cccc(C(F)(F)F)c3)nc2)CC1 | inconclusive: 5.01 µM [inhibitor, full curve]
19 | COc1cc(CCC(=O)Nc2ccc(C)c(S(=O)(=O)N3CCCCCC3)c2)cc(OC)c1OC | inactive
20 | CCn1c(=O)cc(SCC(=O)NCc2ccccc2OC)c2ccccc21 | inconclusive: 1.41 µM [inhibitor, full curve]

Row | SMILES | Potency
21 | CC(C)(C)OC(=O)N1CCC(c2c(C(=O)NCc3ccco3)cnn2-c2ccccc2)CC1 | inactive
22 | Cc1ccc(NC(=O)Cn2cnc3nc4c(cc3c2=O)CCCC4)cc1Cl | inconclusive: 10 µM [inhibitor, partial curve, poor fit]
23 | CCCNC(=O)Cc1cc(=O)[nH]c(=O)[nH]1 | inconclusive: 39.8 µM [inhibitor, partial curve]
24 | COCc1[nH]nc2c1C(c1ccc(OC)c(OC)c1)C(C#N)=C(N)O2 (centres undefined) | inactive
25 | COc1ccc(Cc2nnc(SCC(=O)c3ccc4c(c3)OCO4)o2)cc1 | inactive
26 | Cc1cccc(-n2c3nc(=O)[nH]c(=O)c-3cc3cc([N+](=O)[O-])ccc32)c1 | inconclusive: 44.7 µM [inhibitor, partial curve, poor fit]
27 | CC(=O)Nc1cccc(NCC(=O)Nc2cc(S(=O)(=O)N3CCCCC3)ccc2Cl)c1 | inconclusive: 0.794 µM [inhibitor, full curve, poor fit]
28 | Cc1nnc(SCC(=O)c2ccc([N+](=O)[O-])cc2)s1 | inconclusive: 0.282 µM [inhibitor, full curve]
29 | Cc1ccccc1C(=O)Nc1cc(-c2cc(C(C)(C)C)oc2C)nn1C | inconclusive: 35.5 µM [inhibitor, single point]
30 | COCCNC(=O)CSc1nc2cc3c(cc2c(=O)n1CCCCCC(=O)NCCc1ccc(OC)c(OC)c1)OCO3 | inconclusive: 2 µM [inhibitor, full curve]
31 | O=C(CSc1nnc(-c2cccs2)o1)Nc1cccc(C(F)(F)F)c1 | inconclusive: 0.794 µM [inhibitor, full curve, poor fit]
32 | C=CCC1=C/C(=C\c2c(N)n3nc(CC(=O)N4CCOCC4)sc3nc2=O)C=C(OC)C1=O | inconclusive: 44.7 µM [inhibitor, partial curve, poor fit]
33 | O=C1c2ccccc2-c2onc3c(Br)cc(NC4CCCCC4)c1c23 | inconclusive: 0.224 µM [inhibitor, full curve, poor fit]
34 | O=C(CNC(=O)c1ccccc1)OCC(=O)c1cccs1 | inconclusive: 35.5 µM [inhibitor, single point]
35 | Cc1ccc(-c2c[n+](Cc3ccc(Cl)c(Cl)c3)c3n2CCC3)cc1 | inactive
36 | Cc1cccc(NC(=O)Cn2nc(C)c3nn(-c4ccc(Cl)cc4)c(C)c3c2=O)c1C | inconclusive: 0.794 µM [inhibitor, full curve, poor fit]
37 | COc1ccccc1N1CCN(C(=O)c2ccc3c(c2)N(Cc2ccccc2)C(=O)c2ccccc2S3(=O)=O)CC1 | inconclusive: 10 µM [inhibitor, partial curve]
38 | COc1ccc(-n2nnnc2C2CCN(S(=O)(=O)c3cccc(Cl)c3C)CC2)cc1 | inactive
39 | CCOC(=O)Cc1csc(NC(=O)CC)n1 | inactive

Exported with tabs: entries from further up
Row	SMILES	Potency
27	CC(=O)Nc1cccc(NCC(=O)Nc2cc(S(=O)(=O)N3CCCCC3)ccc2Cl)c1	inconclusive: 0.794 µM [inhibitor, full curve, poor fit]
28	Cc1nnc(SCC(=O)c2ccc([N+](=O)[O-])cc2)s1	inconclusive: 0.282 µM [inhibitor, full curve]
29	Cc1ccccc1C(=O)Nc1cc(-c2cc(C(C)(C)C)oc2C)nn1C	inconclusive: 35.5 µM [inhibitor, single point]
30	COCCNC(=O)CSc1nc2cc3c(cc2c(=O)n1CCCCCC(=O)NCCc1ccc(OC)c(OC)c1)OCO3	inconclusive: 2 µM [inhibitor, full curve]
31	O=C(CSc1nnc(-c2cccs2)o1)Nc1cccc(C(F)(F)F)c1	inconclusive: 0.794 µM [inhibitor, full curve, poor fit]
32	C=CCC1=C/C(=C\c2c(N)n3nc(CC(=O)N4CCOCC4)sc3nc2=O)C=C(OC)C1=O	inconclusive: 44.7 µM [inhibitor, partial curve, poor fit]
33	O=C1c2ccccc2-c2onc3c(Br)cc(NC4CCCCC4)c1c23	inconclusive: 0.224 µM [inhibitor, full curve, poor fit]
34	O=C(CNC(=O)c1ccccc1)OCC(=O)c1cccs1	inconclusive: 35.5 µM [inhibitor, single point]
35	Cc1ccc(-c2c[n+](Cc3ccc(Cl)c(Cl)c3)c3n2CCC3)cc1	inactive
